According to PMC3212929:
No constants are given. Whether binding was seen depends on the method and setting. In cells and extracts the contact can be indirect. Some entries that bind do so weakly or less than the wild type.

Chains of the proteins cited; added tags and fusions are not shown.
UniProt P41229: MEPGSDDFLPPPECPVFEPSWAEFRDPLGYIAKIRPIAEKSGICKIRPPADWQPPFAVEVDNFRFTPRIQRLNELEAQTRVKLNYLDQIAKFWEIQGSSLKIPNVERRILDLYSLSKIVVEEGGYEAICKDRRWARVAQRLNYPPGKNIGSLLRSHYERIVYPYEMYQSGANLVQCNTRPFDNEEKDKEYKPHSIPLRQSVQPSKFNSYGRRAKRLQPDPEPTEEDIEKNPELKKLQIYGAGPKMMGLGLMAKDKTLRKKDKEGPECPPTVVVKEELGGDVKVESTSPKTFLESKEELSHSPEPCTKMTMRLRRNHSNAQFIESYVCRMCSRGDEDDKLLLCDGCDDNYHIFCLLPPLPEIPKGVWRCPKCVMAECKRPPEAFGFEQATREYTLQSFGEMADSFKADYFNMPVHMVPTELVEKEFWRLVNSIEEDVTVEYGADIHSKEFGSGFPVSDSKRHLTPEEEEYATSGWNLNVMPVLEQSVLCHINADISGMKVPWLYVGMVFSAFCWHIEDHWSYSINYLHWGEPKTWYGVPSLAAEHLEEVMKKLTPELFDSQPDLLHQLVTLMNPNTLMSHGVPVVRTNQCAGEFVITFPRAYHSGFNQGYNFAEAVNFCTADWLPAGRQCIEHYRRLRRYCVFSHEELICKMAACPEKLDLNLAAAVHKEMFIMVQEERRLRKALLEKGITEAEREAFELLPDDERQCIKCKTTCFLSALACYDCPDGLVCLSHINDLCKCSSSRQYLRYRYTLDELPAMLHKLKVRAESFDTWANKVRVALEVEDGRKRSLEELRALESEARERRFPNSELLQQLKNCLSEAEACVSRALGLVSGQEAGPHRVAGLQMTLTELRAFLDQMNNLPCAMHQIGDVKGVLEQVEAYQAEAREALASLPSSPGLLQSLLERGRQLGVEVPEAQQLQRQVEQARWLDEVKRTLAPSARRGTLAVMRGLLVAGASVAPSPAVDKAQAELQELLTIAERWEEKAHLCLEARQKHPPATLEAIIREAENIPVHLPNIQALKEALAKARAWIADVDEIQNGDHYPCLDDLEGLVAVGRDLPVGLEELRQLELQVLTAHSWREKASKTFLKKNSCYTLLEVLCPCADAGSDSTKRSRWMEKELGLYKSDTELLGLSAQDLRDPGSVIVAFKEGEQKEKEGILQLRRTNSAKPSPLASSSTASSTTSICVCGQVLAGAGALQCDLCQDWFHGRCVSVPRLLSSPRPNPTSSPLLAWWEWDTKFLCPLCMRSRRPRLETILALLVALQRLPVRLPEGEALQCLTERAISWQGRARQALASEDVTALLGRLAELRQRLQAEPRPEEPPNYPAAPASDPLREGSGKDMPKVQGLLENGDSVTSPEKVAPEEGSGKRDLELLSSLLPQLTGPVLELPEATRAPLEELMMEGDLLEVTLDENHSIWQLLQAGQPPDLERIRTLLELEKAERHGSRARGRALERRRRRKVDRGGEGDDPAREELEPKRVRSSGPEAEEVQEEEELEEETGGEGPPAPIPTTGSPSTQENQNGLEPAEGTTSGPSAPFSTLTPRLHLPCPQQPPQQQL
UniProt P12004: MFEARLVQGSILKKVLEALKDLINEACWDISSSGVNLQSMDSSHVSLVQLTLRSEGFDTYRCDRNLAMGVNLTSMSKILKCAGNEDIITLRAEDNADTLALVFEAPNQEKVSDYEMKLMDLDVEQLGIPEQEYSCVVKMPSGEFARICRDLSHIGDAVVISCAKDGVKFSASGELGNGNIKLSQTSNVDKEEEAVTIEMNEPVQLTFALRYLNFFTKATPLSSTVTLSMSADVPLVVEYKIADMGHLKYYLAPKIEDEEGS

Target: SMCX (Smcy homolog, X-linked (mouse)) histone demethylase, normal SMCX (UniProt P41229)
Test: co-IP; chromatin lysates of 293T cells transfected with the SMCX plasmid; immunoprecipitated with anti-SMCX or anti-PCNA (control normal IgG) at 4°C overnight, protein G plus/protein A agarose; some lysates pretreated with DNAse; western blot

proliferating cell nuclear antigen (PCNA) (from UniProt P12004 1-261)
binding: binds
